Binding data for 1 molecule are collected here from patent US6797511.

The assay deals with cadherin protein coexpressed in vitro with ALARM. Description: co-immunoprecipitation with anti-ALARM sera, proteins coexpressed in vitro.

No constants are given. Whether binding was seen depends on the method and setting. In cells and extracts the contact can be indirect. A result given as binding can be weak or reduced; the word gives no strength.

B1: ALARM (adherens-junction linked arm protein), captured protein transcribed and translated in vitro (protein)
chain: MRSLSQSQGVPLPPAHTGTYRTSTAPSSPGVDSVPLQRTGSQHGPQNAAAATFQRASYAAGPASNYADPYRQLQYCPSVESPYSKSGPALPPEGTLARSPSIDSIQKDPREFGWRDPELPEVIQMLQHQFPSVQSNAAAYLQHLCFGDNKIKAEIRRQGGIQLLVDLLDHRMTEVHRSACGALRNLVYGKANDDNKIALKNCGGIPALVRLLRKTTDLEIRELVTGVLWNLSSCDALKMPIIQDALAVLTNAVIIPHSGWENSPLQDDRKIQLHSSQVLRNATGCLRNVSSPGEEARRRMRECDGLTDALLYVIQSALGSSEIDSKTVENCVCILRNLSYRLAAETSQGQHMGTDELDGLLCGEANGKDAESSGCWGKKKKKKKSQDQWDGVGPLPDCAEPPKGIQMLWHPSIVKPYLTLLSECSNPDTLEGAAGALQNLAAGSWKWSVYIRAAVRKEKGRPILVELLRIDNDRVACAVATALRNMALDVRNKELIGKYAMRDLVHRLPGGNNSNNTASKAMSDDTVTAVCCTLHEVITKNMENAKALRDAGGIEKLVGISKSKGDKHSPKVVKAASQVLNSMWQYRDLRSLYKKDGWSQYHFVASSSTIERDRQRPYSSSRTPSISPVRVSPNNRSASAPASPREMISLKERKTDYECTGSNATYHGAKGEHTSRKDAMTAQNTGISTLYRNSTRNYDESFFEDQVHHRPPASEYTMHLGLKSTGNYVDFYSAARPYSELNYETSHYPASPDSWV
On to B1, for which the binding result is on record as “binds”.
